The source of these data is article PMC12292255.

Sequences of proteins named here, by UniProt entry; tags and fusion partners are left off.
UniProt P35241: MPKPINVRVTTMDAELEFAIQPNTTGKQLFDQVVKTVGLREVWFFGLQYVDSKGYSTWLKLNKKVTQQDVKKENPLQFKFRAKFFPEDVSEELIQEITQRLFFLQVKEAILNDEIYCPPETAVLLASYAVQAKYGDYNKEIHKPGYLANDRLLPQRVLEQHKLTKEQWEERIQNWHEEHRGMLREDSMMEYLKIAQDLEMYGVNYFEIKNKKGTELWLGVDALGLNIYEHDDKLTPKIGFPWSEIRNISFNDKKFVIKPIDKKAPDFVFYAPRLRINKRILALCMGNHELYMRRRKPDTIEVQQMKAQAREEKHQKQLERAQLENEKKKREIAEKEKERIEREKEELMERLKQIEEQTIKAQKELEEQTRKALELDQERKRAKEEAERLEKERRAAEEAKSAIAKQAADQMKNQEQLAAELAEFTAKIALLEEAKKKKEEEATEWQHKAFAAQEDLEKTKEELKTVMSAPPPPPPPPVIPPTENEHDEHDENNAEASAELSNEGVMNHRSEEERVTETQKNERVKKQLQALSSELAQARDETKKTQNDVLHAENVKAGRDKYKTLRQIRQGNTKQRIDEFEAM

Common to all, as to experiment: co-IP; lysates of cells expressing N-OATP1B1-GFP in 10 mM Tris/HCl pH 7.5, 150 mM NaCl, 1% NP-40, 2 mM EDTA, 3% glycerol; anti-GFP or anti-radixin antibody overnight at 4 °C, protein G agarose; immunoblot with radixin, phospho-ERM or GFP antibodies; in Figure 5A cells treated with PMA (10 μM) or Gö6983 (10 μM) for 30 min before lysis
(In general: A western blot detects proteins with antibodies after separation by electrophoresis.)

The target in experiment [1] is T1, N-OATP1B1-GFP (organic anion transporting polypeptide 1B1 with GFP at the amino terminus) (human) (UniProt Q9Y6L6).
T1 sequence: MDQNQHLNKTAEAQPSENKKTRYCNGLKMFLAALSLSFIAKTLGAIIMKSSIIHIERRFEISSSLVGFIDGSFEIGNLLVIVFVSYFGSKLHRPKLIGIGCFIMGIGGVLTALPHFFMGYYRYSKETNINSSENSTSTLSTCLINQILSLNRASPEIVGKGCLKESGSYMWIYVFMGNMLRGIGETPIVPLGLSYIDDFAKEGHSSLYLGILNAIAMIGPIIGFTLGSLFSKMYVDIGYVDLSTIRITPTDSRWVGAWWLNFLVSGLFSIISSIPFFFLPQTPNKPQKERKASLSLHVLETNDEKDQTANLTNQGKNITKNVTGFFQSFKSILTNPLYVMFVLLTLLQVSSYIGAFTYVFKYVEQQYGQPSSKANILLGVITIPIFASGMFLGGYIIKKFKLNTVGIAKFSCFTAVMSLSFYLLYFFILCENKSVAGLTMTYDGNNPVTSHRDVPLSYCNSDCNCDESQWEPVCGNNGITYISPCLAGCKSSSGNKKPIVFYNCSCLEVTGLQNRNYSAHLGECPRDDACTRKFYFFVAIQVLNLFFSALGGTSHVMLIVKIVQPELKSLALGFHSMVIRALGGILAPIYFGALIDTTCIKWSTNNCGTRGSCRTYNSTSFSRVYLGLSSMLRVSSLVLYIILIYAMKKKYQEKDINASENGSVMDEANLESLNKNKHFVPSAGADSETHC

Experiment [2] addresses T2, OATP1B1-3A (human) (UniProt Q9Y6L6).
T2 sequence: T1 sequence with K648A, K649A, K650A

Experiment [3] addresses T3, OATP1B1-3R (human) (UniProt Q9Y6L6).
T3 sequence: T1 sequence with K648R, K649R, K650R

Experiment [4] addresses radixin (human (endogenous in HepG2)) (UniProt P35241).

Substitutions are numbered along the chain they refer to. Results are given in words; binding and its absence hold for the method and conditions named. In cells and extracts the contact can be indirect. Some binding calls cover weakened binding; strength is not graded here. For some assays here: Sequences can lack the tags named with a protein.

For the molecule radixin (from UniProt P35241 1-583), the binding entry in experiment [1], in experiment [2] and in experiment [3] was “binds” throughout. Consider “phosphorylated radixin (Thr564) (from UniProt P35241 1-583)”, for which the binding entry in experiment [1] is “binds”.

B1: N-OATP1B1-GFP (organic anion transporting polypeptide 1B1 with GFP at the amino terminus) (protein, UniProt Q9Y6L6 1-691)
chain: T1 sequence
As to B1, the binding result in experiment [4] is on record as “binds”.
